In article PMC10861516 one finds binding data, which are given here for two substances.

Results are given in words; binding and its absence hold for the method and conditions named. Binding seen in cells or lysates may run through a third protein. Binding can be weak; no strength is given. Sequences can lack the tags named with a protein.

This assay has as its target T1, Flag-tagged human EFHD2 (EF-hand domain-containing protein D2) (human) (UniProt Q96C19).
T1 sequence: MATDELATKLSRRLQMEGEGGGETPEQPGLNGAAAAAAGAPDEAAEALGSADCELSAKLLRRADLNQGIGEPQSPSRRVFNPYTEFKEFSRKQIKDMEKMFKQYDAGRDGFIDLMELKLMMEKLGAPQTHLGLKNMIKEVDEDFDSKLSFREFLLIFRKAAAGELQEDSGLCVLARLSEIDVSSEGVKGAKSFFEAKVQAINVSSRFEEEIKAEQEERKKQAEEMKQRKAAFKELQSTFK
Briefly: co-IP; lysates of HCT-116 cells overexpressing Flag-EFHD2, treated with 50 ng/ml TNF for the indicated time, immunoprecipitated with anti-FLAG M2 magnetic beads, western blot.

With Cofilin (human (endogenous in HCT-116)), the binding result was “binds”.
Under “TNF receptor I (TNFR1) (human (endogenous in HCT-116))” stands “binds”.
